According to patent publication US20230227838A1, “ENHANCED CELL SURVIVAL AGAINST BIOTIC AND ABIOTIC STRESSES THROUGH SALICYLICK ACID-INDUCED NPR1 CONDENSATES” (priority 2020, published 2023):

B1: AT3G48990 (protein, UniProt Q9SMT7 1-514, looked up)
Oxalate--CoA ligase: MDSDTLSGLLENVAKKFPDRRALSVSGKFNLTHARLHDLIERAASRLVSDAGIKPGDVVALTFPNTVEFVIMFLAVIRARATAAPLNAAYTAEEFEFYLSDSDSKLLLTSKEGNAPAQEAASKLKISHVTATLLDAGSDLVLSVADSDSVVDSATELVNHPDDGALFLHTSGTTSRPKGVPLTQLNLASSVKNIKAVYKLTESDSTVIVLPLFHVHGLLAGLLSSLGAGAAVTLPAAGRFSATTFWPDMKKYNATWYTAVPTIHQIILDRHASHPETEYPKLRFIRSCSASLAPVILSRLEEAFGAPVLEAYAMTEATHLMSSNPLPEEGPHKPGSVGKPVGQEMAILNEKGEIQEPNNKGEVCIRGPNVTKGYKNNPEANKAGFEFGWFHTGDIGYFDTDGYLHLVGRIKELINRGGEKISPIEVDAVLLTHPDVSQGVAFGVPDEKYGEEINCAVIPREGTTVTEEDIKAFCKKNLAAFKVPKRVFITDNLPKTASGKIQRRIVAQHFLEKP
B2: AT4G26120 (protein)
chain: MATTTTTTTARFSDSYEFSNTSGNSFFAAESSLDYPTEFLTPPEVSALKLLSNCLESVFDSPETFYSDAKLVLAGGREVSFHRCILSARIPVFKSALATVKEQKSSTTVKLQLKEIARDYEVGFDSVVAVLAYVYSGRVRSPPKGASACVDDDCCHVACRSKVDFMVEVLYLSFVFQIQELVTLYERQFLEIVDKVVVEDILVIFKLDTLCGTTYKKLLDRCIEIIVKSDIELVSLEKSLPQHIFKQIIDIREALCLEPPKLERHVKNIYKALDSDDVELVKMLLLEGHTNLDEAYALHFAIAHCAVKTAYDLLELELADVNLRNPRGYTVLHVAAMRKEPKLIISLLMKGANILDTTLDGRTALVIVKRLTKADDYKTSTEDGTPSLKGGLCIEVLEHEQKLEYLSPIEASLSLPVTPEELRMRLLYYENRVALARLLFPVETETVQGIAKLEETCEFTASSLEPDHHIGEKRTSLDLNMAPFQIHEKHLSRLRALCKTVELGKRYFKRCSLDHFMDTEDLNHLASVEEDTPEKRLQKKQRYMELQETLMKTFSEDKEECGKSSTPKPTSAVRSNRKLSHRRLKVDKRDFLKRPYGNGD
B3: AT2G02560 (protein)
chain: ANLQVSGILEKFQMTGKDKDYRYMATSDLLNELNKDSFKIDLDLEVRLSSIILQQLDDVAGDVSGLAVKCLAPLVKKVGEERIVEMTNKLCDKLLHGKDQHRDTASIALRTVVAQIAPTLAPSILVTLTPQMIGGISGQGMSSGIKCECLEIMCDVVQKYGSLMTDDHEKLLNTLLLQLGCNQATVRKKTVTCIASLASSLSDDLLAKATVEVVKNLSNRNAKSEITRTNIQMIGALCRAVGYRFGTHLGNTVPVLINYCTSASENDEELREYSLQALESFLLRCPRDISPYCDEILNLTLEYISYDPNFTDNMEEDTDNETLEDEEDDESANEYTDDEDASWKVRRAAAKCLAGLIVSRSEMLTKVYQEACPKLIDRFKEREENVKMDVFNTFIDLLRQTGNVTKGQTDTDESSPKWLLKQEVSKIVKSINRQLREKSVKTKVGAFSVLRELVVVLPDCLADHIGSLVPGIERALNDKSSTSNLKIEALVFTKLVLASHAPPVFHPYIKALSSPVLAAVGERYYKVTAEALRVCGELVRVVRPSTAGMGFDFKPFVHPIYNAIMSRLTNQDQDQEVKECAITCMGLVISTFGDQLRAELPSCLPVLVDRMGNEITRLTAVKAFSVIATSPLHINLSCVLDHLIAELTGFLRKANRVLRQATLITMNTLVTAYGDKIGSEAYEVILVELSSLISVSDLHMTALALELCCTLMTGKSCSENISLAVRNKVLPQALTLVKSPLLQGQALLDLQKFFEALVYHANTSFYTLLESLLSCAKPSPQSGGVPKQALYSIAQCVAVLCLAAGDKNCSSTVKMLMEILKDDSGTNSAKQHLALLSLGEIGRRKDLSAHAGIETIVIESFQSPFEEIKSAASYALGNIAVGNLSNYLPFILDQIDNQQKKQYILLHSLKEVIVRQSVDKADFQNSSVEKILALLFNHCESEEEGVRNVVAECLGKMALIEPEKLVPALQVRTTSPAAFTRATVVTAVKYSVVERPEKLDEIIFPQISSFLMLIKDGDRHVRRAAVSALSTFAHYKPNLIKGLLPELLPLLYDQTVIKKELIRTVDLGPFKHVVDDGLELRKAAFECVFTLVDSCLDQVNPSSFIVPFLKSGLEDHYDLKMLCHLILSLLADKCPSAVLAVLDSLVEPLHKTISFKPKQDAVKQEHDRNEDMIRSALRAISSLDRINGVDYSHKFKGLMGDMKRSVPLWEKFQTIRNE
B4: AT2G30110 (protein)
chain: MLHKRASEANDKNDNTIIGSDLASSKKRRIDFTESSSDKSSSILASGSSRGFHGDSVVQQIDMAFGNSNRQEIDEDLHSRQLAVYGRETMRRLFASNVLISGMHGLGAEIAKNLILAGVKSVTLHDERVVELWDLSSNFVFSEDDVGKNRADASVQKLQDLNNAVVVSSLTKSLNKEDLSGFQVVVFSDISMERAIEFDDYCHSHQPPIAFVKADVRGLFGSVFCDFGPEFAVLDVDGEEPHTGIIASISNENQAFISCVDDERLEFEDGDLVVFSEVEGMTELNDGKPRKIKSTRPYSFTLDEDTTNYGTYVKGGIVTQVKQPKLLNFKPLREALKDPGDFLFSDFSKFDRPPLLHLAFQALDHFKAEAGRFPVAGSEEDAQKLISIATAINTGQGDLKVENVDQKLLRHFSFGAKAVLNPMAAMFGGIVGQEVVKACSGKFHPLFQFFYFDSVESLPSEPVDSSDFAPRNSRYDAQISVFGAKFQKKLEDAKVFTVGSGALGCEFLKNLALMGVSCGSQGKLTVTDDDIIEKSNLSRQFLFRDWNIGQAKSTVAASAAAVINPRFNIEALQNRVGAETENVFDDAFWENLTVVVNALDNVNARLYVDSRCLYFQKPLLESGTLGTKCNTQSVIPHLTENYGASRDPPEKQAPMCTVHSFPHNIDHCLTWARSEFEGLLEKTPAEVNAYLSSPVEYTNSMMSAGDAQARDTLERIVECLEKEKCETFQDCLTWARLRFEDYFVNRVKQLIYTFPEDAATSTGAPFWSAPKRFPRPLQYSSSDPSLLNFITATAILRAETFGIPIPEWTKNPKEAAEAVDRVIVPDFEPRQDAKIVTDEKATTLTTASVDDAAVIDDLIAKIDQCRHNLSPDFRMKPIQFEKDDDTNYHMDVIAGLANMRARNYSIPEVDKLKAKFIAGRIIPAIATSTAMATGLVCLELYKVLDGGHKVEAYRNTFANLALPLFSMAEPLPPKVVKHRDMAWTVWDRWVLKGNPTLREVLQWLEDKGLSAYSISCGSCLLFNSMFTRHKERMDKKVVDLARDVAKVELPPYRNHLDVVVACEDEDDNDVDIPLVSIYFR
B5: AT4G21100 (protein)
chain: MSVWNYAVTAQKPTCVTHSCVGNFTSPQELNLIVAKSTRIEIHLLSPQGLQTILDVPLYGRIATMELFRPHGEAQDFLFVATERYKFCVLQWDYESSELITRAMGDVSDRIGRPTDNGQIGIIDPDCRVIGLHLYDGLFKVIPFDNKGQLKEAFNIRLEELQVLDIKFLYGCTKPTIAVLYQDNKDARHVKTYEVSLKDKNFVEGPWSQNNLDNGADLLIPVPSPLCGVLIIGEETIVYCSANAFKAIPIRPSITKAYGRVDLDGSRYLLGDHAGLIHLLVITHEKEKVTGLKIELLGETSIASSISYLDNAVVFVGSSYGDSQLIKLNLQPDAKGSYVEILEKYVNLGPIVDFCVVDLERQGQGQVVTCSGAYKDGSLRIVRNGIGINEQASVELQGIKGMWSLKSSIDEAFDTFLVVSFISETRILAMNIEDELEETEIEGFLSEVQTLFCHDAVYNQLVQVTSNSVRLVSSTTRELRNKWDAPAGFSVNVATANASQVLLATGGGHLVYLEIGDGTLTEVKHVLLEYEVSCLDINPIGDNPNYSQLAAVGMWTDISVRIFVLPDLTLITKEELGGEIIPRSVLLCAFEGISYLLCALGDGHLLNFQLDTSCGKLRDRKKVSLGTRPITLRTFSSKSATHVFAASDRPAVIYSNNKKLLYSNVNLKEVSHMCPFNSAAFPDSLAIAREGELTIGTIDDIQKLHIRTIPIGEHARRICHQEQTRTFAISCLRNEPSAEESESHFVRLLDAQSFEFLSSYPLDAFECGCSILSCSFTDDKNVYYCVGTAYVLPEENEPTKGRILVFIVEEGRLQLITEKETKGAVYSLNAFNGKLLASINQKIQLYKWMLRDDGTRELQSECGHHGHILALYVQTRGDFIAVGDLMKSISLLIYKHEEGAIEERARDYNANWMTAVEILNDDIYLGTDNCFNIFTVKKNNEGATDEERARMEVVGEYHIGEFVNRFRHGSLVMKLPDSDIGQIPTVIFGTVSGMIGVIASLPQEQYAFLEKLQTSLRKVIKGVGGLSHEQWRSFNNEKRTAEAKGYLDGDLIESFLDLSRGKMEEISKGMDVQVEELCKRVEELTRLH
B6: AT5G49570 (protein, UniProt Q9FGY9 1-721, looked up)
Peptide-N(4)-(N-acetyl-beta-gl …: MVARKFVVRHEDSSFDVDYNTEDGLEVLRFLIFSLTLVPPEEQKIVAEDDNRLVSDESDLASLSERLRLVSVGEDSVENSDAEMLKSDEELARMLQAEEDAIMFQQFVAARDNGEFEGRIRPYVSQVLMYEDPVRQDAARKTVPKDELEEKALVSLAKEGNFEPSKEERDYAFLLQLLFWFKKSFRWVNEPPCDFCGNKTIGQGMGNPLTSELAYGANRVEIYRCTMCPTTTRFPRYNDPLKLVETKKGRCGEWANCFTLYCRTFGYDSRLIMDFTDHVWTECYSHSLKRWIHLDPCEGVYDKPMLYEKGWNKKLNYVIAISKDGVCDVTKRYTKKWHEVLSRRTLTTESSLQDGLRTLTRERRRSLMFESLSKLELRDRNEQEELERNLHSADNASVSLPGRQSGDREWRIMRSEFGSDENSSVSSSSCPVRKCVDDHVTNIYDSFLPILTQFVEDGLPVARTNEVLKMIKQVLVDLKNAPYKTRKARLTLDSDNSSSFPEQFLPALGDLLLALSLKSERDTNGKSVTISVDGKLTKTAIALPVALDALRELVADLSKYQNLNKDSLSFPLVKQNRVCSGSVLASGEELPSGIATAAFDGIQESKWEEPNGAKGCWIVYKTLYNQMHQLIAYELMSANDAPERDPKDWILEGSNDGGSTWCVLDKQTSQVFEERFQRKSYKITTPGFQANLFRFRFLSVRDVNSTSRLQLGSIDLYRSHQ
B7: AT1G16890 (protein, UniProt Q9FZ48 1-153, looked up)
Ubiquitin-conjugating enzyme …: MANSNLPRRIIKETQRLLSEPAPGISASPSEENMRYFNVMILGPTQSPYEGGVFKLELFLPEEYPMAAPKVRFLTKIYHPNIDKLGRICLDILKDKWSPALQIRTVLLSIQALLSAPNPDDPLSENIAKHWKSNEAEAVETAKEWTRLYASGA
B8: AT5G24530 (protein, UniProt Q9FLV0 1-341, looked up)
Protein DOWNY MILDEW …: MAAKLISTGFRHTTLPENYVRPISDRPRLSEVSQLEDFPLIDLSSTDRSFLIQQIHQACARFGFFQVINHGVNKQIIDEMVSVAREFFSMSMEEKMKLYSDDPTKTTRLSTSFNVKKEEVNNWRDYLRLHCYPIHKYVNEWPSNPPSFKEIVSKYSREVREVGFKIEELISESLGLEKDYMKKVLGEQGQHMAVNYYPPCPEPELTYGLPAHTDPNALTILLQDTTVCGLQILIDGQWFAVNPHPDAFVINIGDQLQALSNGVYKSVWHRAVTNTENPRLSVASFLCPADCAVMSPAKPLWEAEDDETKPVYKDFTYAEYYKKFWSRNLDQEHCLENFLNN

Test system: sim3-GFP
Assay: Quantitative LC-MS/MS of sim3-GFP interactome (SINC components)
Parameters: species or system Arabidopsis thaliana
Details: protein enrichment in the sim3-GFP interactome (SINC components), SA-treated samples versus mock

Molecule | Normalized Fold Change: SA vs Mock
B1 | 2.006
B2 | 16.7
B3 | 42.1
B4 | 3.322
B5 | 1615
B6 | 3.134
B7 | 3.951
B8 | 15.58
